Results as given in US9284543B2, “Neutral active soluble truncated PH20 polypeptides and uses thereof” (Halozyme, Inc., priority 2008, dated 2016).

Tested on: CHO-S cells
Experiment: Western blot analysis of PH20 expression in media and cells after transient expression
Format: cell-based, Chinese Hamster
Details: band at approximately 66 kDa
Method in brief: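 CHO-S cells were transiently transfected with mutant PH20-HZ24 plasmids using GeneJuice and expressed for 48-72 h at 37 °C, 5% CO2. Media and cells were harvested separately, with PI-PLC treatment used to release GPI-anchored protein. Non-reduced samples were blotted with rabbit anti-PH20 (0.5 μg/mL), and a band near 66 kDa was scored as PH20.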

B1: SPAM1-STLS: C-terminally truncated human PH20, precursor 490 aa (SEQ ID NO:13), mature 455 aa (SEQ ID NO:65) (protein, listed as Homo sapiens)
chain 1: MGVLKFKHIFFRSFVKSSGVSQIVFTFLLIPCCLTLNFRAPPVIPNVPFLWAWNAPSEFCLGKFDEPLDMSLFSFIGSPRINATGQGVTIFYVDRLGYYPYIDSITGVTVNGGIPQKISLQDHLDKAKKDITFYMPVDNLGMAVIDWEEWRPTWARNWKPKDVYKNRSIELVQQQNVQLSLTEATEKAKQEFEKAGKDFLVETIKLGKLLRPNHLWGYYLFPDCYNHHYKKPGYNGSCFNVEIKRNDDLSWLWNESTALYPSIYLNTQQSPVAATLYVRNRVREAIRVSKIPDAKSPLPVFAYTRIVFTDQVLKFLSQDELVYTFGETVALGASGIVIWGTLSIMRSMKSCLLLDNYMETILNPYIINVTLAAKMCSQVLCQEQGVCIRKNWNSSDYLHLNPDNFAIQLEKGGKFTVRGKPTLEDLEQFSEKFYCSCYSTLSCKEKADVKDTDAVDVCIADGVCIDAFLKPPMETEEPQIFYNASPSTLS
chain 2: LNFRAPPVIPNVPFLWAWNAPSEFCLGKFDEPLDMSLFSFIGSPRINATGQGVTIFYVDRLGYYPYIDSITGVTVNGGIPQKISLQDHLDKAKKDITFYMPVDNLGMAVIDWEEWRPTWARNWKPKDVYKNRSIELVQQQNVQLSLTEATEKAKQEFEKAGKDFLVETIKLGKLLRPNHLWGYYLFPDCYNHHYKKPGYNGSCFNVEIKRNDDLSWLWNESTALYPSIYLNTQQSPVAATLYVRNRVREAIRVSKIPDAKSPLPVFAYTRIVFTDQVLKFLSQDELVYTFGETVALGASGIVIWGTLSIMRSMKSCLLLDNYMETILNPYIINVTLAAKMCSQVLCQEQGVCIRKNWNSSDYLHLNPDNFAIQLEKGGKFTVRGKPTLEDLEQFSEKFYCSCYSTLSCKEKADVKDTDAVDVCIADGVCIDAFLKPPMETEEPQIFYNASPSTLS
modifications: HuPH20 precursor 1-490; mature HuPH20 36-490
Q: How did the “Protein Expression” value turn out when B1 was run?
A: YES

B2: SPAM1-TLSA: C-terminally truncated human PH20, precursor 491 aa (SEQ ID NO:11), mature 456 aa (SEQ ID NO:63) (protein, listed as Homo sapiens)
chain 1: MGVLKFKHIFFRSFVKSSGVSQIVFTFLLIPCCLTLNFRAPPVIPNVPFLWAWNAPSEFCLGKFDEPLDMSLFSFIGSPRINATGQGVTIFYVDRLGYYPYIDSITGVTVNGGIPQKISLQDHLDKAKKDITFYMPVDNLGMAVIDWEEWRPTWARNWKPKDVYKNRSIELVQQQNVQLSLTEATEKAKQEFEKAGKDFLVETIKLGKLLRPNHLWGYYLFPDCYNHHYKKPGYNGSCFNVEIKRNDDLSWLWNESTALYPSIYLNTQQSPVAATLYVRNRVREAIRVSKIPDAKSPLPVFAYTRIVFTDQVLKFLSQDELVYTFGETVALGASGIVIWGTLSIMRSMKSCLLLDNYMETILNPYIINVTLAAKMCSQVLCQEQGVCIRKNWNSSDYLHLNPDNFAIQLEKGGKFTVRGKPTLEDLEQFSEKFYCSCYSTLSCKEKADVKDTDAVDVCIADGVCIDAFLKPPMETEEPQIFYNASPSTLSA
chain 2: LNFRAPPVIPNVPFLWAWNAPSEFCLGKFDEPLDMSLFSFIGSPRINATGQGVTIFYVDRLGYYPYIDSITGVTVNGGIPQKISLQDHLDKAKKDITFYMPVDNLGMAVIDWEEWRPTWARNWKPKDVYKNRSIELVQQQNVQLSLTEATEKAKQEFEKAGKDFLVETIKLGKLLRPNHLWGYYLFPDCYNHHYKKPGYNGSCFNVEIKRNDDLSWLWNESTALYPSIYLNTQQSPVAATLYVRNRVREAIRVSKIPDAKSPLPVFAYTRIVFTDQVLKFLSQDELVYTFGETVALGASGIVIWGTLSIMRSMKSCLLLDNYMETILNPYIINVTLAAKMCSQVLCQEQGVCIRKNWNSSDYLHLNPDNFAIQLEKGGKFTVRGKPTLEDLEQFSEKFYCSCYSTLSCKEKADVKDTDAVDVCIADGVCIDAFLKPPMETEEPQIFYNASPSTLSA
modifications: HuPH20 precursor 1-491; esHuPH20 36-491
Q: For B2, which “Protein Expression” value is on record?
A: YES
